For at least one entry, the source does not settle the construct or the ends of the probe. Results from cells or extracts need not show a direct contact.
Target: HER3 on MCF7 cells (with endogenous HER2) (Homo sapiens) (UniProt P21860)
Experiment: activity in cells
Conditions: protein on the cell surface
[1] = inhibits HER2 phosphorylation, less than A30, 100 nM aptamer

Chains of the proteins cited; added tags and fusions are not shown. Residues count along the entry.
UniProt P21860, 20-1342 E560G/E1064G: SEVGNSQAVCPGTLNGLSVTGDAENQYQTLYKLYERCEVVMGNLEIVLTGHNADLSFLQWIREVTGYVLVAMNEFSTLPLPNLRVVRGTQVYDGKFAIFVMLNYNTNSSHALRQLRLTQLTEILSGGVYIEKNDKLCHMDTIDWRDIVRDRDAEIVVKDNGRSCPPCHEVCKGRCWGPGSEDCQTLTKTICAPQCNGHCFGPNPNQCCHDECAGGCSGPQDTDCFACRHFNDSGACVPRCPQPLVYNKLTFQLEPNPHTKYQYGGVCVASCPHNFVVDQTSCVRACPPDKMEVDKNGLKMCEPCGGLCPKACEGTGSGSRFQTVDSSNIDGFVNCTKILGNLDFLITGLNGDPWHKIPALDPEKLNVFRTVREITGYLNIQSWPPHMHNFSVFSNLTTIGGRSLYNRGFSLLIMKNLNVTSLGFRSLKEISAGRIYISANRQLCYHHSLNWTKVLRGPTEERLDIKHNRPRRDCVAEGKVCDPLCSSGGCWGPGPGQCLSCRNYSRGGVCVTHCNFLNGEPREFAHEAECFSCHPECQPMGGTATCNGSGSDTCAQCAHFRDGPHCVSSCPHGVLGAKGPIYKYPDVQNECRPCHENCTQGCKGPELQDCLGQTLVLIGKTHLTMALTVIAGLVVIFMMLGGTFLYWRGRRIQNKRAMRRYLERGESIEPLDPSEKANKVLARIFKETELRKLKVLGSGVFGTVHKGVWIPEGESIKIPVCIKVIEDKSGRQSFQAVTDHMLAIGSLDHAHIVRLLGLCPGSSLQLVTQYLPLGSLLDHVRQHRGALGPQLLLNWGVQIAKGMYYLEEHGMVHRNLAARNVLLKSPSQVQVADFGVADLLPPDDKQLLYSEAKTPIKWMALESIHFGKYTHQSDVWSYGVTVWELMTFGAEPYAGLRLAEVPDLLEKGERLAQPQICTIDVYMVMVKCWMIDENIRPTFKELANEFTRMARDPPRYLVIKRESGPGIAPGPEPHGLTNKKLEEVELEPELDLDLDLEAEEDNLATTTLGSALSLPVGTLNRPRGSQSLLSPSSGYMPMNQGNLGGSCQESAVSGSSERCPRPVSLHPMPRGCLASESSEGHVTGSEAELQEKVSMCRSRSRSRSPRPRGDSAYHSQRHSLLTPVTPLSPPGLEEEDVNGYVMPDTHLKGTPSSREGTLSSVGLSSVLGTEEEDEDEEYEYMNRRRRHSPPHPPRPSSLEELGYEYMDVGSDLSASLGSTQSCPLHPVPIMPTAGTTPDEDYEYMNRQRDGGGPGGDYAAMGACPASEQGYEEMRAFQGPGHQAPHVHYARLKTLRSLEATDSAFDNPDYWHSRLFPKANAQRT

Sequence | functional effect of the aptamer [1] | further results
GGGAAUUCCGCGUGUGCAGAACAAUCGCAUAGGCCGCAAGGUUAGUUUCGUUGUCCGCCCGGUGCAGUCCGUUCGGGAUCCUC [A6] | – | functional effect of the aptamer (enhances low-affinity heregulin activation at 100 nM aptamer): active
GGGAAUUCCGCGUGUGCCAGCGAAAGUUGCGUAUGGGUCACAUCGCAGGCACAUGUCAUCUGGGCGGUCCGUUCGGGAUCCUC [A30] | – | IC50 (inhibition of heregulin-induced HER2 tyrosine phosphorylation in MCF7, EGF-induced activation not inhibited): 0.01 µM
GGGAAUUCCGCGUGUGCGAGGGGCGAGGACGCCGAGUAUAGCCCCUAGAGGUGGAUGUUUCACGGUGUCCGUUCGGGAUCCUC [A23] | active | –
GGGAAUUCCGCGUGUGCUUGAGAGGUCGUGCCAACUCUCAAGGUUGUCUUUGCUCUCCGCUCUGUGGUCCGUUCGGGAUCCUC [A37] | active | –

From patent publication US20070027096
